Measured values published in patent publication US20160289285A1.
Where a chain is given by its changes, count along the chain named. No constants are given. Whether binding was seen depends on the method and setting. Some results given as binding are weak or reduced against the parent protein; the word gives no strength.

Protein sequences, listed by entry. Tags and fused reporters are not part of them. Lines headed by an entry give the natural chain unless they say otherwise; changes in a name come on top. Chains listed by the source or under a name are the forms on record and can include a tag or linker.
rat VEGF-A (P16612, form named): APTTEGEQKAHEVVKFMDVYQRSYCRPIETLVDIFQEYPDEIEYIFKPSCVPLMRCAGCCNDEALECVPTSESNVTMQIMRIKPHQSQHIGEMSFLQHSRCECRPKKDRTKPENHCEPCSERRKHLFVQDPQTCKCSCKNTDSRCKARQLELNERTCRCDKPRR
cynomolgus monkey HGF (C9E9X5, form named): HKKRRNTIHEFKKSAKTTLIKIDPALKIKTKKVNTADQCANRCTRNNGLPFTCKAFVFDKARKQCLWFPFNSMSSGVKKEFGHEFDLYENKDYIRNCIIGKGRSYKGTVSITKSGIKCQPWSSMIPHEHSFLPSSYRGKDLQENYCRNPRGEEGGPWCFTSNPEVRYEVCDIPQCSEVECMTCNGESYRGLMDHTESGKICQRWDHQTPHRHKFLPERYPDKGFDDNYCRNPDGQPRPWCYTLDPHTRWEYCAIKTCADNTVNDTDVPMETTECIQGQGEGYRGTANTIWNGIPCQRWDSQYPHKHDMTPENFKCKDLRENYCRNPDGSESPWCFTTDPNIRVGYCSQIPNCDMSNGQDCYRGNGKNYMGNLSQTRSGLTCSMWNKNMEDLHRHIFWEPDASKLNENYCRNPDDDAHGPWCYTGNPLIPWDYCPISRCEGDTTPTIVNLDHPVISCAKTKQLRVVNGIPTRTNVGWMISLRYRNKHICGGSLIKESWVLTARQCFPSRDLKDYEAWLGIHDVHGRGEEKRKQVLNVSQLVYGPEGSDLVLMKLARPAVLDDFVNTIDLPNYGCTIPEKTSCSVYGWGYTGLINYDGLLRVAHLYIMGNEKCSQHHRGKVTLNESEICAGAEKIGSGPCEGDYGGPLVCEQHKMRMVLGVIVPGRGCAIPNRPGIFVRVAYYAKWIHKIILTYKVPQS

Tests used:
mouse VEGF-A (mouse) [1] = molecular target: T1, mouse VEGF-A (mouse) (UniProt Q00731); test: ELISA (FIG. 6A)
T1 sequence (looked up): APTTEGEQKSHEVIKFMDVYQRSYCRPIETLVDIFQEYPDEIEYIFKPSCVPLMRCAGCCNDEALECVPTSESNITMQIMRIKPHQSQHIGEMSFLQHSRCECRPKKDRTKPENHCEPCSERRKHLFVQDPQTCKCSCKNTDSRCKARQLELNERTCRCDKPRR

rat VEGF-A (rat) [2] = molecular target: T2, rat VEGF-A (rat) (UniProt P16612); test: ELISA (FIG. 6A)
T2 sequence (looked up): T1 sequence (looked up) with S10A, I14V, I75V

[3] = molecular target: cynomolgus monkey HGF (cynomolgus monkey) (UniProt C9E9X5); test: ELISA (FIG. 6B)
[4] = molecular target: cynomolgus monkey HGF (cynomolgus monkey) (UniProt C9E9X5); test: ELISA, immobilised target
mouse VEGF-A (mouse) [5] = molecular target: T1, mouse VEGF-A (mouse); test: ELISA, immobilised target
rat VEGF-A (rat) [6] = molecular target: T2, rat VEGF-A (rat); test: ELISA, immobilised target

Measured: binding

B1: Protein #134 (designed binder)
chain: GSDLGKKLLEAARAGQDDEVRELLKAGADVNAKDYFSHTPLHLAARNGHLKIVEVLLKAGADVNAKDFAGKTPLHLAANEGHLEIVEVLLKAGADVNAQDIFGKTPADIAADAGHEDIAEVLQKAAGSPTPTPTTPTPTPTTPTPTPTGSDLGKKLLEAARAGQDDEVRILLKAGADVNAKDRYGDTPLHLAADIGHLEIVEVLLKAGADVNAEDYFGNTPLHLAASYGHLEIVEVLLKAGADVNAKDDYGNTPLHLAANTGHLEIVEVLLKAGADVNAQDKSGKTPADLAADAGHEDIAEVLQKAAGSPTPTPTTPTPTPTTPTPTPTGSDLDKKLLEAARAGQDDEVRILLKAGADVNAKDSTGWTPLHLAAPWGHPEIVEVLLKAGADVNAKDFQGWTPLHLAAAAGHLEIVEVLLKAGADVNAQDKSGKTPADLAADAGHEDIAEVLQKAAGSPTPTPTTPTPTPTTPTPTPTGSDLGKKLLEAARAGQDDEVRELLKAGADVNAKDYFSHTPLHLAARNGHLKIVEVLLKAGADVNAKDFAGKTPLHLAANEGHLEIVEVLLKAGADVNAQDIFGKTPADIAADAGHEDIAEVLQKAA
binds: mouse VEGF-A (mouse) [1] | rat VEGF-A (rat) [2] | [3] | [4] | mouse VEGF-A (mouse) [5] | rat VEGF-A (rat) [6]
